Experimental data from PMC5340530.
No constants are given. Whether binding was seen depends on the method and setting. Some binding calls cover weakened binding; strength is not graded here. For some assays here: Tags and fused reporters may be left off the sequences shown. Blank lines part the entries; values can stand above or below the binder they belong to.

Experiments:
[1] = biological target: recombinant GST-YOD1 (UniProt Q5VVQ6); assay: pull-down; GST-YOD1 (or GST) on Glutathione Sepharose 4B; candidate protein incubated 2 hr at 4°C in assay buffer with 0,5% Triton X100; Western blot or Coomassie; both purified
[2] = biological target: YOD1, GAL4 AD or BD fusion (yeast two-hybrid) (UniProt Q5VVQ6); assay: two-hybrid; GAL4 AD (pGAD-C1) and BD (pGBD-C1) fusions co-transformed in S. cerevisiae PJ69-7A; growth on -HIS-LEU-TRP plates

- binding [1]: no binding
B1: Strep-TRAF6 RZF1 (50–159) (domain or fragment, UniProt Q9Y4K3 50-159)
chain: MEEIQGYDVEFDPPLESKYECPICLMALREAVQTPCGHRFCKACIIKSIRDAGHKCPVDNEILLENQLFPDNFAKREILSLMVKCPNEGCLHKMELRHLEDHQAHCEFAL

- binding [2]: binds weakly
B2: SHARPIN (AD fusion, yeast two-hybrid) (protein, UniProt Q9H0F6 1-387)
chain: MAPPAGGAAAAASDLGSAAVLLAVHAAVRPLGAGPDAEAQLRRLQLSADPERPGRFRLELLGAGPGAVNLEWPLESVSYTIRGPTQHELQPPPGGPGTLSLHFLNPQEAQRWAVLVRGATVEGQNGSKSNSPPALGPEACPVSLPSPPEASTLKGPPPEADLPRSPGNLTEREELAGSLARAIAGGDEKGAAQVAAVLAQHRVALSVQLQEACFPPGPIRLQVTLEDAASAASAASSAHVALQVHPHCTVAALQEQVFSELGFPPAVQRWVIGRCLCVPERSLASYGVRQDGDPAFLYLLSAPREAPATGPSPQHPQKMDGELGRLFPPSLGLPPGPQPAASSLPSPLQPSWSCPSCTFINAPDRPGCEMCSTQRPCTWDPLAAAST
